The exact form of at least one protein or probe is not confirmed. Results from cells or extracts need not show a direct contact. At least one verdict was read from the data and is not stated in words by the source.
Molecular target: nucleolin (NCL) (UniProt P19338)
Test: competition (RNA pull-down)
Conditions: AS1411 antagonizes NCL binding to p53 5'UTR RNA; protein in an extract; folded or branched DNA

Amino acid sequences for entries named in this document (tags omitted).
UniProt P19338, whole entry: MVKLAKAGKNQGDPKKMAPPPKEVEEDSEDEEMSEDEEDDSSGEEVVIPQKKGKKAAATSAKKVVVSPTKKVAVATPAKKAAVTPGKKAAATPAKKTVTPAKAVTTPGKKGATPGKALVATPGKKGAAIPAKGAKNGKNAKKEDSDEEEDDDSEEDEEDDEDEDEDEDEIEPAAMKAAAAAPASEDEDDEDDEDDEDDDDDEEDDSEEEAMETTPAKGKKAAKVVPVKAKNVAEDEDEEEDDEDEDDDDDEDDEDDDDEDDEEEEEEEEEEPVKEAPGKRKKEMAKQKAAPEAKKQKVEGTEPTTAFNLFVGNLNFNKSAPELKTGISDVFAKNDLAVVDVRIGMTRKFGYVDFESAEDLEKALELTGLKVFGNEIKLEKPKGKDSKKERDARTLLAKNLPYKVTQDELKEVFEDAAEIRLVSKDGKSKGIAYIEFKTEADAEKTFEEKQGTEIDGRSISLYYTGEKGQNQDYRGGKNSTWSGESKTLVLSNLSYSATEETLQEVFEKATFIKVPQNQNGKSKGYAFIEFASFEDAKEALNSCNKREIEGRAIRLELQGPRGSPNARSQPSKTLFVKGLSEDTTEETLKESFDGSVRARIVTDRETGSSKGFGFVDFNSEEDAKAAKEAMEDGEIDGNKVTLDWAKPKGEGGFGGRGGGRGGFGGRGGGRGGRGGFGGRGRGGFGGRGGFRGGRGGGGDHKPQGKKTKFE

Q: Does GGTGGTGGTGGTTGTGGTGGTGGTGG [AS1411] bind?
A: Result: binds
